Test results reported in paper doi:10.1101/2021.02.17.431755.
Results are given in words; binding and its absence hold for the method and conditions named. Binding seen in cells or lysates may run through a third protein. Some binding calls cover weakened binding; strength is not graded here. Tags and fused reporters may be left off the sequences shown.

Molecular target: Flag-tagged full-length TRIM25, Q14258
Assay: co-IP
Settings: remark: other sources report otherwise

B1: HA-tagged RIG-I, O95786 1-925 (protein)
chain: MTTEQRRSLQAFQDYIRKTLDPTYILSYMAPWFREEEVQYIQAEKNNKGPMEAATLFLKFLLELQEEGWFRGFLDALDHAGYSGLYEAIESWDFKKIEKLEEYRLLLKRLQPEFKTRIIPTDIISDLSECLINQECEEILQICSTKGMMAGAEKLVECLLRSDKENWPKTLKLALEKERNKFSELWIVEKGIKDVETEDLEDKMETSDIQIFYQEDPECQNLSENSCPPSEVSDTNLYSPFKPRNYQLELALPAMKGKNTIICAPTGCGKTFVSLLICEHHLKKFPQGQKGKVVFFANQIPVYEQQKSVFSKYFERHGYRVTGISGATAENVPVEQIVENNDIIILTPQILVNNLKKGTIPSLSIFTLMIFDECHNTSKQHPYNMIMFNYLDQKLGGSSGPLPQVIGLTASVGVGDAKNTDEALDYICKLCASLDASVIATVKHNLEELEQVVYKPQKFFRKVESRISDKFKYIIAQLMRDTESLAKRICKDLENLSQIQNREFGTQKYEQWIVTVQKACMVFQMPDKDEESRICKALFLYTSHLRKYNDALIISEHARMKDALDYLKDFFSNVRAAGFDEIEQDLTQRFEEKLQELESVSRDPSNENPKLEDLCFILQEEYHLNPETITILFVKTRALVDALKNWIEGNPKLSFLKPGILTGRGKTNQNTGMTLPAQKCILDAFKASGDHNILIATSVADEGIDIAQCNLVILYEYVGNVIKMIQTRGRGRARGSKCFLLTSNAGVIEKEQINMYKEKMMNDSILRLQTWDEAVFREKILHIQTHEKFIRDSQEKPKPVPDKENKKLLCRKCKALACYTADVRVIEECHYTVLGDAFKECFVSRPHPKPKQFSSFEKRAKIFCARQNCSHDWGIHVKYKTFEIPVIKIESFVVEDIATGVQTLYSKWKDFHFEKIPFDPAEMSK
- binding: binds
